## Results of single-concentration screens

Amino acid sequences for entries named in this document (tags omitted). Residues count along the entry.
UniProt A4I591, 1-473: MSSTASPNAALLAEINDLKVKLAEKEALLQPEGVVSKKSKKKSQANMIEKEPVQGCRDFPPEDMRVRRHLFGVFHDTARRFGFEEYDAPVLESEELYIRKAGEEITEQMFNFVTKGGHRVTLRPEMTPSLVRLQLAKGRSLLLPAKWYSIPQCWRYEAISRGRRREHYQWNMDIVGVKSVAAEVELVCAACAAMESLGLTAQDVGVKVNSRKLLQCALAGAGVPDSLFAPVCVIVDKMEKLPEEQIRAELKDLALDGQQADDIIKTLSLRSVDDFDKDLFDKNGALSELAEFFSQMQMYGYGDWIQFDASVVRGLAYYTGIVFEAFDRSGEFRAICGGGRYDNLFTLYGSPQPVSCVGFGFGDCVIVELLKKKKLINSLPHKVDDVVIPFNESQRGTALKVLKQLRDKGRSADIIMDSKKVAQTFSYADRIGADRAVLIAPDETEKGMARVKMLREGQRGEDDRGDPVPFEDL

Source: ChEMBL document CHEMBL3988442, “University of Dundee, Small-Polar-MMV Screening Library” (2021).

Values are the deposited “Percent Effect”, in %. How 0% and 100% were set is not recorded. Most values in the screen are low, and negative values occur. The compounds are a random part of those screened.

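Enzyme assay of histidyl-tRNA synthetase; the read-out is not stated. Target: Histidine-tRNA ligase, Leishmania infantum (UniProt A4I591). Tested at 30 µM. Direction is inferred from retests: higher values go with stronger inhibition. The assay is labelled LdHisRS but filed under L. infantum. Size under these conditions: about 69,000 compounds, about 410 of them at 50% or above in at least one test.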

{"smiles": "CC(C)c1nnc2n1CC(CNCc1nc3ccccc3o1)CC2", "stereo": "stereo not given", "Percent Effect": 12.39}
{"smiles": "c1ccc(-c2nnc(CNCC3CCCN3c3cccnn3)o2)cc1", "stereo": "stereo not given", "Percent Effect": 12.9}
{"smiles": "O=C(Cn1nc(-c2ccc(F)cc2)oc1=O)NCc1ccc(F)cc1", "Percent Effect": 5.6}
{"smiles": "O=C(CCc1ccco1)Nc1ccc(Br)cn1", "Percent Effect": 10.75}
{"smiles": "CCOCC1CN(Cc2ccc(F)cc2)Cc2nn(CC3CC3)cc21", "stereo": "stereo not given", "Percent Effect": 23.08}
{"smiles": "O=C(c1ccncc1)N1CC2(CCNCC2)c2cc(Cl)ccc21", "Percent Effect": 19.27}
{"smiles": "Cc1nccn1CCCC(=O)N1CCC(N(C)c2cccnn2)CC1", "Percent Effect": 14.04}
{"smiles": "CN1CCCC1CNC(=O)CCCOc1cccc(F)c1", "stereo": "stereo not given", "Percent Effect": 16.07}
{"smiles": "CCc1n[nH]c(SCC(=O)N2CCc3[nH]nc(C4CCC4)c3C2)n1", "Percent Effect": 21.92}
{"smiles": "Cc1nc(CNC(=O)NCC(O)c2ccc(F)c(F)c2)cs1", "stereo": "stereo not given", "Percent Effect": 21.54}
{"smiles": "N#CC(NC(=O)CCC(=O)NC1CCCC1)c1ccc(F)cc1F", "stereo": "stereo not given", "Percent Effect": 9.677}
{"smiles": "Cc1ccc(CC2COc3ccccc3C2)c(N)n1", "stereo": "stereo not given", "Percent Effect": -38.71}
{"smiles": "N#Cc1cccc(N2CCCC3(CNCCO3)C2)n1", "stereo": "stereo not given", "Percent Effect": 8.621}
{"smiles": "O=C(c1occc1CN1C(=O)Cc2ccccc21)N1CCCCCC1", "Percent Effect": 21.52}
{"smiles": "O=C(c1cccnc1)N(CCO)Cc1cc(Br)ccc1F", "Percent Effect": 9.89}
{"smiles": "Cn1cc(CN(CC2(O)CNCCOC2)C2CCCCC2)cn1", "stereo": "stereo not given", "Percent Effect": 18.37}
{"smiles": "Cc1ccc(CN2CC[C@H]3CO[C@H](CN(C)Cc4ccco4)[C@H]3C2)s1", "Percent Effect": 20.55}
{"smiles": "CO[C@H]1CC[C@H]2[C@H]1OCCN2C(=O)c1ccc(C)nc1", "Percent Effect": 17.54}
{"smiles": "Cc1occc1CNC(=O)C1(C)CCCN(C(=O)c2ccccc2)C1", "stereo": "stereo not given", "Percent Effect": 21.92}
{"smiles": "CN1CCN(C(=O)c2ccnc(N3CCOC(C(F)(F)F)C3)c2)CC1", "stereo": "stereo not given", "Percent Effect": 7.692}
{"smiles": "Cc1cc(NC(=O)C(C)N2CCCN(c3nccs3)CC2)on1", "stereo": "stereo not given", "Percent Effect": 10.64}
{"smiles": "CC1CCC(NCCNC(=O)c2cccs2)CC1", "stereo": "stereo not given", "Percent Effect": 18.62}
{"smiles": "Cc1cc(C[C@@H]2COC[C@H]2NCc2ccc(C(F)(F)F)cc2)on1", "Percent Effect": 16}
{"smiles": "CCSc1cncc(N2CCC(NC(=O)C3CCCCC3)CC2)n1", "Percent Effect": 26.13}
{"smiles": "Cc1ccc(NC(=O)N2C[C@H]3CC[C@@H]2CN(Cc2cscn2)C3)cc1", "Percent Effect": 22.86}
{"smiles": "Cn1ccnc1CN1CCN(CC(O)c2cc(F)ccc2F)CC1", "stereo": "stereo not given", "Percent Effect": 4.425}
{"smiles": "CC(C)CC(=O)N1CC[C@@H]2[C@H](CC1)N(Cc1cccnc1)CCS2(=O)=O", "Percent Effect": 11.11}
{"smiles": "O=C(C1CC=CC1)N1CCC2(CC1)CN(Cc1ccccn1)CCO2", "Percent Effect": 5.882}
{"smiles": "Cc1cnc(CN(C)C2CCN(Cc3nc4ccccc4n3C)C2)o1", "stereo": "stereo not given", "Percent Effect": 33.78}
{"smiles": "CN(C)C1(CNc2nccc(-c3cnn(C)c3)n2)CCSC1", "stereo": "stereo not given", "Percent Effect": -3.509}
{"smiles": "Cc1cnn(C2CN(c3ncnc4[nH]ccc34)C2)c1", "Percent Effect": 5.208}
{"smiles": "CCOc1ccc(CN2CCN(C(=O)c3cc(C4CC4)[nH]n3)CC2)cc1", "Percent Effect": 5.357}
{"smiles": "O=S(=O)(Nc1cnc(N2CCCC2)nc1)c1ccc(F)cc1F", "Percent Effect": 7.692}
{"smiles": "Cc1ccc(CNC(c2ccccc2)c2nccn2C)cc1", "stereo": "stereo not given", "Percent Effect": 12.84}
{"smiles": "CC(C)c1ncncc1C(=O)NCCN1CCCS1(=O)=O", "Percent Effect": -8.511}
{"smiles": "Cc1ccc(C(=O)N(CC2CCCO2)c2ccncc2)o1", "stereo": "stereo not given", "Percent Effect": 16.3}
{"smiles": "Cc1ccccc1NC(=O)N1CC[C@@H]2CN(C)S(=O)(=O)[C@@H]2CC1", "Percent Effect": 9.709}
{"smiles": "CC(CNC(=O)c1cccnc1O)Cn1cccn1", "stereo": "stereo not given", "Percent Effect": 19.4}
{"smiles": "CCOCc1ncn2c1CN(C(=O)Nc1ccccc1)CC2", "Percent Effect": 15.07}
{"smiles": "COc1ccc([C@@H]2CN(C(=O)c3cscn3)C[C@H]2C(=O)O)cc1", "Percent Effect": 7.586}
{"smiles": "Cc1cc(OC(F)F)c(C(=O)N2CCC(CN(C)C)CC2)s1", "Percent Effect": 14.29}
{"smiles": "c1cc(CN2C[C@H](OCC3CCOCC3)[C@H]3COC[C@H]32)cs1", "Percent Effect": 6.306}